Reference: PMC7190567
No constants are given. Whether binding was seen depends on the method and setting. In cells and extracts the contact can be indirect. Some results given as binding are weak or reduced against the parent protein; the word gives no strength.

Sequences of proteins named here, by UniProt entry; tags and fusion partners are left off.
UniProt Q03135: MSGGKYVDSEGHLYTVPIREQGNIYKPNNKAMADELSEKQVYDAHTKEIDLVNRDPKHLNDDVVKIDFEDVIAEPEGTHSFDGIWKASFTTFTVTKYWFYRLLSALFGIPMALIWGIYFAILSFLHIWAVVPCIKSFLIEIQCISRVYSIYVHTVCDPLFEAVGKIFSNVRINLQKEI

T1: Caveolin-1 (Y14F), non-phosphorylatable mutant (dog) (UniProt P33724)
T1 sequence: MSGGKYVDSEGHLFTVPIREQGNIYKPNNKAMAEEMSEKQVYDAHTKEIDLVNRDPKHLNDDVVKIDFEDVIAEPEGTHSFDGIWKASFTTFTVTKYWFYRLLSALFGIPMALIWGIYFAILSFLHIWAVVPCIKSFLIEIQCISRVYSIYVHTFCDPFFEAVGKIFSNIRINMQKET

B1: Tyrosine-protein phosphatase non-receptor type 14 (PTPN14) (enzyme, UniProt Q62130 1-1189)
chain: MPFGLKLRRTRRYNVLSKNCFVTRIRLLDSNVIECTLSVESTGQECLEAVAQRLELRETHYFGLWFLSKSQQARWVELEKPLKKHLDKFANEPLLFFGVMFYVPNVSRLQQEATRYQYYLQVKKDVLEGRLRCSLEQVIRLAGLAVQADFGDYNQFDSQEFLREYVLFPMDLAMEEAALEELTQKVAQEHKAHSGILPAEAELMYINEVERLDGFGQEIFPVKDSHGNSVHLGIFFMGIFVRNRVGRQAVIYRWNDIGSVTHSKAAILLELIDKEETALFHTDDIENAKYISRLFTTRHKFYKQNKICTEQSNSPPPIRRQPTWSRSSLPRQQPYILPPMHVQCSEHYSETHTSQDSIFPGNEEALYCRSHNSLDLNYLNGTVTNGSVCSVHSVNSLSCSQSFIQASPVSSNLSIPGSDIMRADYIPSHRHSTIIVPSYRPTPDYETVMRQMKRGLMHADSQSRSLRNLNIINTHAYNQPEELVYSQPEMRERHPYTVPYAHQGCYGHKLVSPSDQMNPQNCAMPIKPGASSISHTVSTPELANMQLQGAQHYSTAHMLKNYLFRPPPPYPRPRPATSTPDLASHRHKYVSGSSPDLVTRKVQLSVKTFQEDSSPVVHQSLQEVSEPLTATKHHGGGGGTVNKRHSLEVMNSMVRGMEAMTLKSLNIPMARRNTLREQGPSEETGGHEVHGLPQYHHKKTFSDATMLIHSSESEEEEETLEAAPQVPVLREKVEYSAQLQAALARIPNRPPPEYPGPRKSVSNGALRQDQGTPLPAMARCRVLRHGPSKALSVSRAEQLAVNGASLGPSISEPDLTSVKERVKKEPVKERPVSEMFSLEDSIIEREMMIRNLEKQKMTGPQAQKRPLMLAALNGLSVARVSGREDGHHDATRVPIDERLRALKKKLEDGMVFTEYEQIPNKKANGVFSTATLPENAERSRIREVVPYEENRVELIPTKENNTGYINASHIKVVVGGSEWHYIATQGPLPHTCHDFWQMVWEQGVNVIAMVTAEEEGGRTKSHRYWPKLGSKHSSATYGKFKVTTKFRTDSGCYATTGLKVKHLLSGQERTVWHLQYTDWPHHGCPEDVQGFLSYLEEIQSVRRHTNSVLEGIRTRHPPIVVHCSAGVGRTGVVILSELMIYCLEHNEKVEVPTMLRFLREQRMFMIQTIAQYKFVYQVLVQFLQNSRLI
B2: PTPN14 (human, endogenous) (enzyme, UniProt Q15678 1-1187)
chain: MPFGLKLRRTRRYNVLSKNCFVTRIRLLDSNVIECTLSVESTGQECLEAVAQRLELRETHYFGLWFLSKSQQARWVELEKPLKKHLDKFANEPLLFFGVMFYVPNVSWLQQEATRYQYYLQVKKDVLEGRLRCTLDQVIRLAGLAVQADFGDYNQFDSQDFLREYVLFPMDLALEEAVLEELTQKVAQEHKAHSGILPAEAELMYINEVERLDGFGQEIFPVKDNHGNCVHLGIFFMGIFVRNRIGRQAVIYRWNDMGNITHNKSTILVELINKEETALFHTDDIENAKYISRLFATRHKFYKQNKICTEQSNSPPPIRRQPTWSRSSLPRQQPYILPPVHVQCGEHYSETHTSQDSIFHGNEEALYCNSHNSLDLNYLNGTVTNGSVCSVHSVNSLNCSQSFIQASPVSSNLSIPGSDIMRADYIPSHRHSAIIVPSYRPTPDYETVMRQMKRGILHTDSQSQSLRNLNIINTHAYNQPEDLVYSQPEMRERHPYTVPYGPQGVYSNKLVSPSDQRNPKNNVVPSKPGASAISHTVSTPELANMQLQGSHNYSTAHMLKNYLFRPPPPYPRPRPATSTPDLASHRHKYVSGSSPDLVTRKVQLSVKTFQEDSSPVVHQSLQEVSEPLTATKHHGTVNKRHSLEVMNSMVRGMEAMTLKSLHLPMARRNTLREQGPPEEGSGSHEVPQLPQYHHKKTFSDATMLIHSSESEEEEEEAPESVPQIPMLREKMEYSAQLQAALARIPNKPPPEYPGPRKSVSNGALRQDQASLPPAMARARVLRHGPAKAISMSRTDPPAVNGASLGPSISEPDLTSVKERVKKEPVKERPVSEMFSLEDSIIEREMMIRNLEKQKMAGLEAQKRPLMLAALNGLSVARVSGREENRVDATRVPMDERFRTLKKKLEEGMVFTEYEQIPKKKANGIFSTAALPENAERSRIREVVPYEENRVELIPTKENNTGYINASHIKVVVGGAEWHYIATQGPLPHTCHDFWQMVWEQGVNVIAMVTAEEEGGRTKSHRYWPKLGSKHSSATYGKFKVTTKFRTDSVCYATTGLKVKHLLSGQERTVWHLQYTDWPDHGCPEDVQGFLSYLEEIQSVRRHTNSMLEGTKNRHPPIVVHCSAGVGRTGVLILSELMIYCLEHNEKVEVPMMLRLLREQRMFMIQTIAQYKFVYQVLIQFLQNSRLI

Assays:
[1] = molecular target: T1, Caveolin-1 (Y14F), non-phosphorylatable mutant (dog); assay: co-IP; polyclonal anti-CAV1 (2.5 ug) on protein A Dynabeads; 2 mg extract of B16F10 cells expressing E-cadherin (pBATEM2); PBS-Tween 0.1%, 2 h, room temperature; western blot
[2] = molecular target: T1, Caveolin-1 (Y14F), non-phosphorylatable mutant (dog); assay: co-IP; polyclonal anti-CAV1 (2.5 ug) on protein A Dynabeads; 2 mg extract of B16F10 cells without E-cadherin; PBS-Tween 0.1%, 2 h, room temperature; western blot
[3] = molecular target: Caveolin-1 (human, endogenous in Gbd1 cells) (human (endogenous in Gbd1)) (UniProt Q03135); assay: co-IP; human Gbd1 and DLD-1 cancer cells that express E-cadherin, PTPN14 and CAV1; PTPN14 detected by western blot

Binder	binding [1]	binding [2]	binding [3]
B1	binds	binds	–
B2	–	–	binds
